Weaker means in comparison with the reference protein, sequence or condition of that experiment.
Columns and labels:
[1] = target: Clr4 Mut1 (block B K/R>Q) R85Q,K87Q,K94Q,R98Q,R101Q,R104Q (Schizosaccharomyces pombe) (UniProt O60016); test: EMSA; conditions: EMSA: 20 mM Tris-HCl pH 7.5, 1 mM DTT, 0.1 mg/ml BSA; RNA on ice 30 min; DNA and nucleosomes 37 C 15 min; 5% native PAGE, 0.5x TBE; recombinant protein; protein details: His-SUMO removed by Ulp1; label: none (SYBR Gold stain); probe letters rebuilt from the primers and the genome
[2] = target: Clr4 Mut2 (block C K/R>Q) K109Q,K110Q,K113Q,K114Q,K122Q,R123Q,R126Q,K127Q (Schizosaccharomyces pombe) (UniProt O60016); test: EMSA; conditions: EMSA: 20 mM Tris-HCl pH 7.5, 1 mM DTT, 0.1 mg/ml BSA; RNA on ice 30 min; DNA and nucleosomes 37 C 15 min; 5% native PAGE, 0.5x TBE; recombinant protein; residues 1-490; protein details: His-SUMO removed by Ulp1; label: none (SYBR Gold stain); probe letters rebuilt from the primers and the genome

The chains behind the UniProt entries cited, without tags or fusion partners.
UniProt O60016, whole entry R85Q/K87Q/K94Q/R98Q/R101Q/R104Q: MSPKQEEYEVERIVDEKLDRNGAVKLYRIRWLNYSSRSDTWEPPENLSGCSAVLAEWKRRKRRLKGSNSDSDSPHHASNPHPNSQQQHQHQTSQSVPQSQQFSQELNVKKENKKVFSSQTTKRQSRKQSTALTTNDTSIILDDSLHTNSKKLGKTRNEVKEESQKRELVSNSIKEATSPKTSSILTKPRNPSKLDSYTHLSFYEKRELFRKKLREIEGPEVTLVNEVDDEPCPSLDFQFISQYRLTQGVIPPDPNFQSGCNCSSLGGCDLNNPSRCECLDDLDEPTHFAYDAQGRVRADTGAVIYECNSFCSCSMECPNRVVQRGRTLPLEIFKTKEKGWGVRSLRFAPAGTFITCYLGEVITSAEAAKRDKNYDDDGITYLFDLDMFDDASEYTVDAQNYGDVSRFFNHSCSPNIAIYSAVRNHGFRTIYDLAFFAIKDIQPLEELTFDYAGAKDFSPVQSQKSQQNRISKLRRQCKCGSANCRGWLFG
UniProt O60016, whole entry K109Q/K110Q/K113Q/K114Q/K122Q/R123Q/R126Q/K127Q: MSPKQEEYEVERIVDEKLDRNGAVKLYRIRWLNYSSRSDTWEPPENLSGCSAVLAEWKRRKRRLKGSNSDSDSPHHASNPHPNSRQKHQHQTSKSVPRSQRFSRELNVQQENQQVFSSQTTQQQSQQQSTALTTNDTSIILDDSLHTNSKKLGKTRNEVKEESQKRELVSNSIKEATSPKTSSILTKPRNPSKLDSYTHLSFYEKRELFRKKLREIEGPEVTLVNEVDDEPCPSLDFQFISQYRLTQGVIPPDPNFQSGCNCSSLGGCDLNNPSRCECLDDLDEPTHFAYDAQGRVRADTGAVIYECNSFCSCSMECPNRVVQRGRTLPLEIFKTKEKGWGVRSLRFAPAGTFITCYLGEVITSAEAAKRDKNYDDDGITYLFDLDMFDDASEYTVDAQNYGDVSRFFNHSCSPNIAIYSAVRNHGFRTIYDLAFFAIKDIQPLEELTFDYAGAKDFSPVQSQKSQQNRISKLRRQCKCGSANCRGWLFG

Row | Sequence | binding result [1] | binding result [2]
1 | GGGAGCCUCAAGUGACUGCAUUAAAGCAUAAUACCGAAGCACUGACAUAACAGAGAGGUUCAGAAAGGAAUUUAAAGAUUGACUUUUUCGACAAACUUCAUGUUACAAGUCUUAUCGUUUGUGUUUAUAAAUCAUCAGCCUCUCUCUAUAUCUCUAUAUCUCUAUAUAUCAGAUAUAAAGAUGCAAGUUUUGAAGUAGACAUUCCGCACAAAGUCUAGUACACCAUGUCUCUUGUGCUCAGGCUGGUUGUCCUGCAAAAAUGUACAACAGGCAAAUGGAUGUUUCAUCAAAGAUGGACUCCUUUGUCUCAUACUUAUUGAUGGCGAAGCUAGAUCCGUUAUCAUCUUGAGAAAACACAUCGUUGUCUUCAGAGUAGCCC [pericentromeric repeat RNA, 379 nt] | binds more weakly | binds more weakly
2 | GGGUACCUUUGGGACGUGGUCUCUUGCUUUUGGCUGAAAUGUCUUCCAAAGGCUCUUUGGCUACUGGUUCCUACACAGAGAAAACCUUAGAAUGGUUUGAGAAGCAUACCGAUUUUUGCUUUGGCUUUAUAGCUGGUCGUCGAUUUCCUAACCUUCAAAGCGACUACAUAACUAUGUCCCCUGGUAUCGGCUUGGAUGUUAAAGGAGACGGGCUGGGACAGCAAUAUCGUACUCCUGAAGAAGUGAUUGUAAACUGCGGUAGCGAUAUCAUCAUUGUUGGUCGUGGAGUCUAUGGAGCUGGUCG [ura4+ RNA, 304 nt] | binds more weakly | binds more weakly
